Reference: patent US20260263521A1, “ANTI-CD200R1 ANTIBODY AND USE THEREOF” (AIMED BIO INC., priority 2023, published 2026)
Results are given in words; binding and its absence hold for the method and conditions named. Some entries that bind do so weakly or less than the wild type. For some of these results: Where a sequence is shown, tags or fusion partners need not be part of it. Values belong to the binder of their own block, whether it stands above or below them.

Amino acid sequences for entries named in this document (tags omitted). Residues count along the entry.
UniProt Q9ES57, residues 26-238: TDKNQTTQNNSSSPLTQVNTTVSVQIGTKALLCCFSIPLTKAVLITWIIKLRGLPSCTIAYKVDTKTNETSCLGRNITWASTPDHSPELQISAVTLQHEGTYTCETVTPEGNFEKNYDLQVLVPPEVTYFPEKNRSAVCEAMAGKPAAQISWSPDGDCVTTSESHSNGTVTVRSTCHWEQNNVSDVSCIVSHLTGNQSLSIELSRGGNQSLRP

Legend:
[1] = biological target: T1, Hybrid CD200R1 MH (mouse;human) (UniProt Q9ES57+Q8TD46); assay: ELISA, plate-bound MH hybrid (1 ug/mL), antibody 0.0192-300 nM, O.D 450 nm; panel 'P001 MH domain-4)'
[2] = biological target: human CD200R1 expressed on cells (Jurkat-CD200R1, U937-CD200R1, HH cells) (human) (UniProt Q8TD46); assay: cell binding assay (FACS); HH cells by the legend of FIG. 9
[3] = biological target: T2, human CD200R1 recombinant protein (construct not stated) (human) (UniProt Q8TD46); assay: antigen binding assay (ELISA), affinity screening against P001018
T2 sequence (looked up): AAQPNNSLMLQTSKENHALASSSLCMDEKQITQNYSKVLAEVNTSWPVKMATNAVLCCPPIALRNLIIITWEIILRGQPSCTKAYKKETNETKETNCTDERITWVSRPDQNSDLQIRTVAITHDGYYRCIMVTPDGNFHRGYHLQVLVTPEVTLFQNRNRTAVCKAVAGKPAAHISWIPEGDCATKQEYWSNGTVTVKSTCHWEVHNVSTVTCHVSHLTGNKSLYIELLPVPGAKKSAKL

[4] = biological target: T1, Hybrid CD200R1 MH (mouse;human); assay: ELISA, plate-bound MH hybrid (1 ug/mL), antibody 0.0192-300 nM, O.D 450 nm; panel 'P001 MH domain-3)'
[5] = biological target: human CD200R1 expressed on cells (Jurkat-CD200R1, U937-CD200R1, HH cells) (human) (UniProt Q8TD46); assay: flow cytometry on Jurkat-CD200R and HH cells; IgG4 and LALAPG forms
[6] = biological target: T3, recombinant human CD200R1 Fc chimera protein, CF (R&D systems, 3414-CD) (human) (UniProt Q8TD46); assay: ELISA, plate-bound human CD200R1-Fc (2 ug/mL), IgG 0.0192-300 nM, anti-human IgG F(ab')2-HRP, OD 450 nm; panel 'human CD200R1'
T3 sequence (looked up): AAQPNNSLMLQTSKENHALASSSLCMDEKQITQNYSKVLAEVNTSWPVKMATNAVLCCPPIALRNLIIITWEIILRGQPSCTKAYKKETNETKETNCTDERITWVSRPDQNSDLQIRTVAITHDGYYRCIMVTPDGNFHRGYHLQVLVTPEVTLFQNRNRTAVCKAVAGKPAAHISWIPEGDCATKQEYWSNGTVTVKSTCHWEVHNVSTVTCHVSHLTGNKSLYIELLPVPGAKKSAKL

[7] = biological target: human CD200R1 expressed on cells (Jurkat-CD200R1, U937-CD200R1, HH cells) (human) (UniProt Q8TD46); assay: flow cytometry as in Example 12, IgG4 form; MFI normalized to chOX108 = 100; panels 'CD200R1 highly expressing cell (IgG4)' (HH) and 'Exogenous CD200R1 O/E cell (IgG4)' (Jurkat-CD200R1)
[8] = biological target: human CD200R1 expressed on cells (Jurkat-CD200R1, U937-CD200R1, HH cells) (human) (UniProt Q8TD46); assay: flow cytometry as in Example 12, LALAPG form; MFI normalized to chOX108 = 100; panels 'CD200R1 highly expressing cell (LALAPG)' (HH) and 'Exogenous CD200R1 O/E cell (LALAPG)' (Jurkat-CD200R1)
[9] = biological target: human CD200R1 expressed on cells (Jurkat-CD200R1, U937-CD200R1, HH cells) (human) (UniProt Q8TD46); assay: flow cytometry, IgG1 form at 500 nM; MFI normalized to P001017 (chimeric OX108) = 100; upper panel 'CD200R1 highly expressing cell' (HH), lower panel 'Exogenous CD200R1(+) cell' (Jurkat-CD200R1)
[10] = biological target: T2, human CD200R1 recombinant protein (construct not stated) (human); assay: ELISA on human CD200R1, O.D 450 nm, about 0.4-300 nM
[11] = biological target: mouse CD200R1 protein (R&D systems, 2554-CD) (mouse) (UniProt Q9ES57); assay: ELISA on mouse CD200R1, O.D 450 nm, 0.0192-300 nM; panel 'P001_CD200R1 mouse 1'

B1: 6C3 (hybridoma clone) (antibody, V domains shown)
VH: QVQLQQPGAELVRPGASVKLSCKASAYTFTSYWMNWVKQRPEQGLEWIGRIDPYDSETHYNQKFKDKAILTVDKSSSTAYMQLSSLTSEDSAVYYCARVDGNHLFDYWGQGTTLTVSS
VL: DIKMTQSPSSMYASLGERVTITCKASQDINSYLSWFQQKPGKSPKTLIYRANRLVDGVPSRFSGSGSGQDYSLTISSLEYEDMGIYYCLQYDEFPYTFGGGTKLEIK
binding [1]: binds

B2: P001018 scFv mutant H3-Y102K (scFv)
scFv: QVQLVQSGAEVKKPGASVKVSCKASGYTFTSYVMHWVRQAPGQGLEWMGYINPYNDDTNYNEKFKGRVTMTRDTSTSTVYMELSSLRSEDTAVYYCAREDYYGSRWGKWGQGTLVTVSSGGGGSGGGGSGGGGSDIVLTQSPASLAVSPGQRATITCRASKSVSTSGYSYMHWYQQKPGQPPKLLIYLASNLESGVPARFSGSGSGTDFTLTINPVEANDTANYYCQHSRELLTFGQGTKVEIK
binding [2]: binds
binding [3]: binds

B3: P001018 scFv mutant H3-Y102T (scFv)
scFv: QVQLVQSGAEVKKPGASVKVSCKASGYTFTSYVMHWVRQAPGQGLEWMGYINPYNDDTNYNEKFKGRVTMTRDTSTSTVYMELSSLRSEDTAVYYCAREDYYGSRWGTWGQGTLVTVSSGGGGSGGGGSGGGGSDIVLTQSPASLAVSPGQRATITCRASKSVSTSGYSYMHWYQQKPGQPPKLLIYLASNLESGVPARFSGSGSGTDFTLTINPVEANDTANYYCQHSRELLTFGQGTKVEIK
binding [2]: binds
binding [3]: binds

B4: P001013 (IgG) (antibody, V domains shown)
VH: EVQLLESGGGLVQPGGSLRLSCAASGFTFSGYDMSWVRQAPGKGLEWVSGIPPGDGSTYYADSVKGRFTISRDNSKNTLYLQMNSLRAEDTAVYYCAKHLVSDHPPSQYSDDGMDVWGQGTLVTVSS
VL: QSVLTQPPSASGTPGQRVTISCSGSSSNIGNNDVNWYQQLPGTAPKLLIYYNSQRPSGVPDRFSGSKSGTSASLAISGLRSEDEADYYCGSWDYSLNGYVFGGGTKLTVL
binding [4]: binds

B5: P001006 (IgG) (antibody, V domains shown)
VH: EVQLLESGGGLVQPGGSLRLSCAASGFTFSDYAMSWVRQAPGKGLEWVSGISYGNGNTYYADSVKGRFTISRDNSKNTLYLQMNSLRAEDTAVYYCAKDPWQTAINDFDYWGQGTLVTVSS
VL: QSVLTQPPSASGTPGQRVTISCTGSSSNIGNNSVNWYQQLPGTAPKLLIYTNSHRPSEVPDRFSGSKSGTSASLAISGLRSEDEADYYCGTWDSSLSGYVFGGGTKLTVL
binding [5]: binds
binding [6]: binds
binding [7]: binds
binding [8]: binds
binding [9]: binds

B6: P001007 (IgG) (antibody, V domains shown)
VH: EVQLLESGGGLVQPGGSLRLSCAASGFTFSNYDMSWVRQAPGKGLEWVSAISYDNGNTYYADSVKGRFTISRDNSKNTLYLQMNSLRAEDTAVYYCARNRAWFDYWGQGTLVTVSS
VL: QSVLTQPPSASGTPGQRVTISCSGSSSNIGNNNVYWYQQLPGTAPKLLIYYDSQRPSGVPDRFSGSKSGTSASLAISGLRSEDEADYYCAAWDASLNGYVFGGGTKLTVL
binding [6]: binds

B7: P001008 (IgG) (antibody, V domains shown)
VH: EVQLLESGGGLVQPGGSLRLSCAASGFTFSSYDMSWVRQAPGKGLEWVSWISHGGGSIYYADSVKGRFTISRDNSKNTLYLQMNSLRAEDTAVYYCARDAPALMHSLFDYWGQGTLVTVSS
VL: QSVLTQPPSASGTPGQRVTISCSGSSSNIGSNHVNWYQQLPGTAPKLLIYYDSQRPSGVPDRFSGSKSGTSASLAISGLRSEDEADYYCGSWDASLNGYVFGGGTKLTVL
binding [5]: binds
binding [7]: binds
binding [8]: binds
binding [9]: binds

B8: P001012 (IgG) (antibody, V domains shown)
VH: EVQLLESGGGLVQPGGSLRLSCAASGFTFSGYDMSWVRQAPGKGLEWVSGISSSGGNKYYADSVKGRFTISRDNSKNTLYLQMNSLRAEDTAVYYCARAIRPCISAPCYYDDAMDVWGQGTLVTVSS
VL: QSVLTQPPSASGTPGQRVTISCTGSSSNIGSNYVSWYRQLPGTAPKLLIYSDSQRPSGVPDRFSGSKSGTSASLAISGLRSEDEADYYCGSWDYSLSAYVFGGGTKLTVL
binding [9]: binds

B9: P001010 (IgG) (antibody, V domains shown)
VH: EVQLLESGGGLVQPGGSLRLSCAASGFTFSNYAMSWVRQAPGKGLEWVSSISPGGGSIYYADSVKGRFTISRDNSKNTLYLQMNSLRAEDTAVYYCARDPGQMFWPLFDYWGQGTLVTVSS
VL: QSVLTQPPSASGTPGQRVTISCTGSSSNIGSNNVSWYQQLPGTAPKLLIYDDSHRPSGVPDRFSGSKSGTSASLAISGLRSEDEADYYCGSWDASLNGYVFGGGTKLTVL
binding [9]: binds

B10: P001023 (antibody, V domains shown)
VH: QVQLVESGGGVVQPGGSLRLSCAASGYTFTSYVMHWVRQAPGKGLEWVAYINPYNDDTNYNEKFKGRFTISRDNSKNTLYLQMNSLRAEDTAVYYCAKEDYYGSRWGYWGQGTLVTVSS
VL: DIVLTQSPASLAVSPGQRATITCRASKSVSTSGYSYMHWYQQKPGQPPKLLIYLASNLESGVPARFSGSGSGTDFTLTINPVEANDTANYYCQHSRELLTFGQGTKVEIK
binding [10]: binds

binding [11]: no binding (tested: 300 nM)
B11: P001018 (huOX108.1) (antibody, V domains shown)
VH: QVQLVQSGAEVKKPGASVKVSCKASGYTFTSYVMHWVRQAPGQGLEWMGYINPYNDDTNYNEKFKGRVTMTRDTSTSTVYMELSSLRSEDTAVYYCAREDYYGSRWGYWGQGTLVTVSS
VL: DIVLTQSPASLAVSPGQRATITCRASKSVSTSGYSYMHWYQQKPGQPPKLLIYLASNLESGVPARFSGSGSGTDFTLTINPVEANDTANYYCQHSRELLTFGQGTKVEIK

B12: P001020 (antibody, V domains shown)
VH: QVQLVESGGGVVQPGGSLRLSCAASGYTFTSYVMHWVRQAPGKGLEWVAYINPYNDDTNYNEKFKGRFTISRDNSKNTLYLQMNSLRAEDTAVYYCAKEDYYGSRWGYWGQGTLVTVSS
VL: DIQMTQSPSSLSASVGDRVTITCRASKSVSTSGYSYMHWYQQKPGKAPKLLIYLASNLESGVPSRFSGSGSGTDFTLTISSLQPEDFATYYCQHSRELLTFGQGTKVEIK
binding [10]: binds

B13: 6A8 (hybridoma clone) (antibody, V domains shown)
VH: QVQLQQPGAELVKPGAPVKLSCKASGYTFTSYWMNWVKQRPGRGLEWIGRIDPSDSETHYNQKFKDKATLTVDKSSSTAYIQLSSLTSEDSAVYYCARSGGWLPGFAYWGQGTLVTVSA
VL: ENVLTQSPAIMSASPGEKVTMTCSASSSLSYMLWYQQKSSTSPKLWIYDTSKLASGVPGRFSGSGSGNSYSLTISSMEAEDVGTYYCFQGSGNPLMYTFGGGTKLEIK
binding [1]: binds
